Our source for the binding values is paper PMC10190619.

Chains of the proteins cited; added tags and fusions are not shown. Lines headed by an entry give the natural chain unless they say otherwise; changes in a name come on top.
UniProt Q16531: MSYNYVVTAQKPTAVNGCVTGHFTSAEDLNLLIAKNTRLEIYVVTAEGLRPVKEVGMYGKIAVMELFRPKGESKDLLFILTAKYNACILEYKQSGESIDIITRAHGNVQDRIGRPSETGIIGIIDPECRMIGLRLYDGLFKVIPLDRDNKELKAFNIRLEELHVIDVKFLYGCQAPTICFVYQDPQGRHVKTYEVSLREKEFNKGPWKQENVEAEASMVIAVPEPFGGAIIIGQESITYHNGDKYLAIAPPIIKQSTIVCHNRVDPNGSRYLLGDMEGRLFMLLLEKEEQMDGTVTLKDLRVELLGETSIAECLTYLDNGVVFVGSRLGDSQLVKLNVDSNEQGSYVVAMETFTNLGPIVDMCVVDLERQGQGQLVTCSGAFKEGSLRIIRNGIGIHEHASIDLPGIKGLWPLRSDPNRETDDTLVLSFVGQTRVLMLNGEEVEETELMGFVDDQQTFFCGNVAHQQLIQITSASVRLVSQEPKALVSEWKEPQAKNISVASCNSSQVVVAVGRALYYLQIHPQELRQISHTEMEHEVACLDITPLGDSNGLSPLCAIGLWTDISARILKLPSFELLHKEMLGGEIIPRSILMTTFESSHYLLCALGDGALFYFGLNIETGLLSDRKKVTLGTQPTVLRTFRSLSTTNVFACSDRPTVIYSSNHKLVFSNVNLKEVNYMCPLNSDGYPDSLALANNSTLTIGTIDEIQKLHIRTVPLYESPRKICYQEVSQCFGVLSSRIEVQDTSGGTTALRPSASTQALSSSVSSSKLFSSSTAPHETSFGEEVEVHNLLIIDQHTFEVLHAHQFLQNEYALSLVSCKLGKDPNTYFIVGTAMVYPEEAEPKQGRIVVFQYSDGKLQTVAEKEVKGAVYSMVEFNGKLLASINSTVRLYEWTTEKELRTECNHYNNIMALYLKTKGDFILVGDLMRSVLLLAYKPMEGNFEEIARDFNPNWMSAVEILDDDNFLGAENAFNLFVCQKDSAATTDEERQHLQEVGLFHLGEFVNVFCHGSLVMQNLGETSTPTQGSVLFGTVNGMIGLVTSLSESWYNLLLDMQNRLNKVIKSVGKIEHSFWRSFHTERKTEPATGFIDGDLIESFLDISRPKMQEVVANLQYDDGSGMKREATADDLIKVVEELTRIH
UniProt P09874: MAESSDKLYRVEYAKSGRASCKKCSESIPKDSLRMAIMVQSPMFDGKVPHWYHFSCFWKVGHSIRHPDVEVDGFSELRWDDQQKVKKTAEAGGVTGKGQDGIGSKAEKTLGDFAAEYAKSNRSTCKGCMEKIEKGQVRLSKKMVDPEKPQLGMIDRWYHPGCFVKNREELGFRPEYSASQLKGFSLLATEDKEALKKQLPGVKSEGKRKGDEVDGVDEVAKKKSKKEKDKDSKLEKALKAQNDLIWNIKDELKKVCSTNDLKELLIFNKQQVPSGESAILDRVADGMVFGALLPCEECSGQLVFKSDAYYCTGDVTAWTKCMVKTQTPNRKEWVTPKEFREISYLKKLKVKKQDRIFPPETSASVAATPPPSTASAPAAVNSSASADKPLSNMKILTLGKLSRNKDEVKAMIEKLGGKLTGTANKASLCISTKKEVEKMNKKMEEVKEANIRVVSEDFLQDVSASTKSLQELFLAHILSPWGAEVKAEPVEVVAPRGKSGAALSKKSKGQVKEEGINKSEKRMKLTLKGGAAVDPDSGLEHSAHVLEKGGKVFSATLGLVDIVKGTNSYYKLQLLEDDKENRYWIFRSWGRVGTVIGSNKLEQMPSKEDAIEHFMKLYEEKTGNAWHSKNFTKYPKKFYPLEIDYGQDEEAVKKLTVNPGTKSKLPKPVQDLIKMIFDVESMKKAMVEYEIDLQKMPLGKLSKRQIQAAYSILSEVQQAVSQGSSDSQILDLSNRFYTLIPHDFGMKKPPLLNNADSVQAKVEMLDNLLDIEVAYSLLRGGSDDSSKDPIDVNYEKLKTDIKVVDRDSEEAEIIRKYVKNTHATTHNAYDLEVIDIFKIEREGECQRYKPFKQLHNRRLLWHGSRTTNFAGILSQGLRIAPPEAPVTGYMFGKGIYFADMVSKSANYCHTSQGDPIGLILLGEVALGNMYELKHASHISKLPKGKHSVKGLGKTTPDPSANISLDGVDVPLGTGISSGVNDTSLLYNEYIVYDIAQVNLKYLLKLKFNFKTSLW
UniProt Q96LA8: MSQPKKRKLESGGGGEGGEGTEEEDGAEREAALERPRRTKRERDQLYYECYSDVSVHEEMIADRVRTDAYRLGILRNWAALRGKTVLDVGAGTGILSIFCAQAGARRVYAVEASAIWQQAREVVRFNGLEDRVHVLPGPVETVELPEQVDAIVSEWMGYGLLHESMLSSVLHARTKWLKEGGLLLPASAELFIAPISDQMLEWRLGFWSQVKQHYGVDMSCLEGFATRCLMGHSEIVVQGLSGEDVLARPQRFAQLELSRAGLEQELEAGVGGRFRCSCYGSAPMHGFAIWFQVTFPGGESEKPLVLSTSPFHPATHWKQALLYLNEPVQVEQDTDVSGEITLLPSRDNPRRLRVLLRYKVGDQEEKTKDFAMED

These are yes or no findings as the source states them, for the method shown. In cells and extracts the contact can be indirect. Binding can be weak; no strength is given.

The target in experiment [1] is GST-fused DDB1 propeller domain BPC (UniProt Q16531). The experiment is described as follows: pull-down; GST fusion protein purified on glutathione-Sepharose 4B beads mixed with in vitro transcribed/translated product (rabbit reticulocyte lysate) in binding buffer; beads washed, Western blot; only the target purified.
The target of experiment [2] is GST-fused DDB1 propeller domain BPA (UniProt Q16531). The description is as above.

On to “in vitro transcribed/translated PARP1 (from UniProt P09874 1-1014) (enzyme)”, for which the binding entry in experiment [1] is recorded as “binds”. Take “in vitro transcribed/translated PRMT6 (from UniProt Q96LA8 1-375) (enzyme)”: the binding result in experiment [2] is given as “binds”.
